Test results published in US6455528B1, “Piperazine compounds and medicinal use thereof” (Mitsubishi Pharma Corporation, priority 1997, dated 2002).

Tests used:
female BALB/c mice = conditions: LPS 10 mg/kg i.p.; test compound orally 30 min before LPS; survival monitored for 3 days; 9 mice per group; all non-administered mice died
male Lewis rats = conditions: rat, in vivo

CC(=O)NCc1ccc(CN2CCN(c3ccc(F)cc3F)CC2)cc1 [Example 20, N-(4-((4-(2,4-Difluorophenyl)piperazin-1-yl)methyl)phenylmethyl)acetamide]
mice survived (female BALB/c mice): 8 mice | volume of the limb decreased by (change from day 15 to day 20) (male Lewis rats): 0.186 mL
